Measured values as given in patent publication US12344599B2, “Prodigiosin analogs and methods of use” (Institute For Cancer Research, priority 2016, dated 2025).

Test system: p53 target genes in HT29 cells
Experiment: RNA-Seq gene profiling with IPA analysis
Assay type: cell-based, human
Details: HT29, 1 μM for 24 hours
Protocol: Having confirmed that PG3-Oc induces apoptosis in multiple p53-expressing mutant cancer cell lines, whether this small molecule restored p53 pathway signaling was investigated in HT29 cells after treatment with 1 μM PG3-Oc for 24 hours. For this purpose, gene profiling was performed by RNA-Seq and bioinformatics analysis, such as IPA (Ingenuity pathway analysis), GSEA (gene set enrichment analysis) and GO (gene ontology) (See details at Methods and Materials). […] Key p53 target gene CDKN1A (p21) that negatively regulate cell cycle and other p53 target genes that regulate apoptosis such as, TNFRSF10B (DR5), BBC3 (PUMA), BIRC5 (Survivin), TP53INP1 (Teap) were identified in canonical p53 pathway analysis. […] To verify that the behavior of regulation of p53 target genes by PG3-Oc is similar to p53 protein, based on published data (Fischer, Oncogene, 2017, 36(28), 3943-3956), genes directly repressed (FIG. 89) and activated (FIG. 90) by the p53 transcription factor were selected. […] This implicates that PG3-Oc is able to restore the p53 pathway.

Compound: CCCCCCCCOC(=O)CCc1c(C)[nH]c(/C=C2\N=C(c3ccc[nH]3)C=C2OC)c1C [PG3-Oc, Octyl (Z)-3-(5-((4′-methoxy-1H,5′H-[2,2′-bipyrrol]-5′-ylidene)methyl)-2,4-dimethyl-1H-pyrrol-3-yl)propanoate]
- number of down-regulated genes among 284 known p53 target genes: 24 genes
- number of up-regulated genes among 284 known p53 target genes: 35 genes
